# Laboratory results published in the supplement of paper PMC9135407.
# “And” between values parts separate entries of the source, which are not always exact repeats. Equal entries are not always repeated. Structures can show the parent of a compound that is named as a salt. ± gives the standard deviation of the averaged measurements. This is one part of the list. Plates or batches differ in their baseline, so values are only roughly comparable.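 Culture-activated primary human stellate myofibroblasts, where regained lipid droplets signal inactivation. Value: share of Hoechst-counted cells above a per-plate Bodipy cutoff, in duplicate wells, with DMSO negative and nortriptyline positive controls on each plate. Hits: a control-normalized score above the plate's top-tenth-percentile nortriptyline wells, or one of a plate's three best wells. Final well concentrations are not given.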
# Test system: primary human hepatic stellate cells (donor 1)
# Assay: percent Bodipy-positive cells; higher = more lipid droplet accumulation
# Conditions: 48 h
# [1] = library stock concentration: 1 mM
# [2] = library stock concentration: 10 mM
# [3] = library stock concentration: 3.33 mM
structure (smiles),measurement,setting,value
CCCCCCCCc1ccc(CCC(N)(CO)CO)cc1,percent Bodipy-positive cells,[1],51.2 ± 7%
CCCCCCCCc1ccc(CCC(N)(CO)CO)cc1 [Fingolimod (FTY720) HCl],percent Bodipy-positive cells,[2],100%
CCCCCCCC/C=C\CCCCCCCC(=O)NCCc1ccc(O)c(O)c1 [N-Oleoyldopamine],percent Bodipy-positive cells,[2],17.9 ± 2%
CCCCCCCC/C=C\CCCCCCCC(=O)NCCc1ccc(O)c(O)c1 [N-Oleoyl Dopamine],percent Bodipy-positive cells,[1],8.71 ± 1.3%
CC(C)[C@H](NC(=O)[C@H](CC(=O)O)NC(=O)[C@H](CCCCN)NC(=O)[C@@H](N)CCCN=C(N)N)C(=O)N[C@@H](Cc1ccc(O)cc1)C(=O)O,percent Bodipy-positive cells,[2],35.1 ± 3.9%
"CCCCC[C@H](O)/C=C/[C@H]1[C@H](O)CC(=O)[C@@H]1CCCCCCCCC(=O)O [1a,1b-dihomo Prostaglandin E1]",percent Bodipy-positive cells,[1],15.5 ± 2.8%
C[C@]12CC[C@@H]3c4ccc(O)cc4CC[C@H]3[C@@H]1CCC2=O [Estrone],percent Bodipy-positive cells,,10.6 ± 2.7%
same,percent Bodipy-positive cells,[3],11.4 ± 4.7%
c1cc(OCCN2CCCCC2)cc(-c2n[nH]c3ccc(-c4ncn[nH]4)cc23)c1,percent Bodipy-positive cells,[2],98.7 ± 1.1%
Nc1ncnc2c1c(-c1cccc(OCc3ccccc3)c1)cn2C1CC(CN2CCC2)C1 (stereo unspecified),percent Bodipy-positive cells,library stock concentration: 80 uM,43.8 ± 17%
same,percent Bodipy-positive cells,library stock concentration: 400 uM,45.2 ± 4.7%
same,percent Bodipy-positive cells,library stock concentration: 2 mM,63.7 ± 2.4%
same,percent Bodipy-positive cells,[2],99.57 ± 0.61%
O=c1c2sc(-c3ccc(F)cc3)cc2ncn1Cc1nc2ccccc2[nH]1,percent Bodipy-positive cells,[2],78.2 ± 1.8%
COc1cc(C(=O)NC2CCCNC2)cc(OC)c1OC (stereo unspecified) [Troxipide],percent Bodipy-positive cells,[3],11.1 ± 7%
same,percent Bodipy-positive cells,[2],28.2 ± 17%
c1ccc(N2CCN(Cc3nc4ccccc4[nH]3)CC2)nc1 [ABT 724 trihydrochloride],percent Bodipy-positive cells,[2],8.25 ± 2.3%
COC(=O)c1c(-c2cc(OC)c(OC)c(OC)c2)c2ccnc(OCc3ncccn3)c2c(=O)n1Cc1ccnc(C)c1 [T 0156 hydrochloride],percent Bodipy-positive cells,[2],7.23 ± 3.7%
CCCCC/C=C\C\C=C/C=C/C=C/[C@@H](SC[C@H](NC(=O)CC[C@H](N)C(=O)O)C(=O)NCC(=O)O)[C@@H](O)CCCC(=O)O [Leukotriene C4],percent Bodipy-positive cells,library stock concentration: 100 uM,7.82 ± 10%
CC(C)c1cc(C(=O)N2Cc3ccc(CN4CCN(C)CC4)cc3C2)c(O)cc1O,percent Bodipy-positive cells,[3],70.8 ± 14%
same,percent Bodipy-positive cells,[2],86.8 ± 0.51%
COc1ccc2cc(CC(=O)O)ccc2c1 [6-methoxy Naphthalene Acetic Acid],percent Bodipy-positive cells,[1],9.87 ± 1.1%
Cl.O=S(=O)(c1cccc2c(Cl)cccc12)N1CCCNCC1 [ML 9 hydrochloride],percent Bodipy-positive cells,[2],58.62 ± 0.29%
CC(=O)OCC(=O)[C@@]1(O)CC[C@H]2[C@@H]3C[C@H](C)C4=CC(=O)C=C[C@]4(C)[C@H]3[C@@H](O)C[C@@]21C,percent Bodipy-positive cells,[2],26.4 ± 5.1%
CC12CC3CC(C)(C1)CC(N)(C3)C2.Cl [Memantine hydrochloride],percent Bodipy-positive cells,[2],92.9 ± 2.1%
CCCCCCCCCCCCCCCNC(=O)C1CCCCC1 [N-Cyclohexanecarbonylpentadecylamine],percent Bodipy-positive cells,[1],10.5 ± 1.8%
CCOC(=O)C1=C[C@]2(CC)CCCN3CCc4c(n1c1ccccc41)[C@@H]32 [Vinpocetine],percent Bodipy-positive cells,,24.8 ± 2.2%
same,percent Bodipy-positive cells,library stock concentration: 5.7 mM,18.9% and 19%
same,percent Bodipy-positive cells,library stock concentration: 14.3 mM,11.3 ± 3.3%
CC(=O)c1cc2c(cc1O)OC(C)(C)C=C2 [Eupatoriochromene],percent Bodipy-positive cells,[2],26.68 ± 0.048%
CC1CN(S(=O)(=O)c2cccc3cnccc23)CCN1 (stereo unspecified),percent Bodipy-positive cells,[2],50.7 ± 4%
COc1ccccc1O [Guaiacol],percent Bodipy-positive cells,library stock concentration: 16.1 mM,8.06 ± 5%
CC1CNCCN1S(=O)(=O)c1cccc2cnccc12 (stereo unspecified),percent Bodipy-positive cells,[2],45.9 ± 3.4%
CCCC1([C@H](O)C/C=C/[C@H]2[C@H](O)CC(=O)[C@@H]2CCCCCCC(=O)OC)CCC1 [Butaprost],percent Bodipy-positive cells,[1],16.2 ± 2.6%
CCCC1([C@H](O)C/C=C/[C@H]2[C@H](O)CC(=O)[C@@H]2CCCCCCC(=O)OC)CCC1 [Butaprost (free acid)],percent Bodipy-positive cells,[1],17 ± 2.3%
CNCCC(Oc1ccccc1OC)c1ccccc1 (stereo unspecified) [Nisoxetine hydrochloride],percent Bodipy-positive cells,,27.8 ± 1.8%
COc1cc(CCC(C)=O)ccc1O [Vanillylacetone],percent Bodipy-positive cells,[3],8.18 ± 3.1%
same,percent Bodipy-positive cells,[2],19.1 ± 9.9%
O=NN(CCCl)C(=O)NC1CCCCC1 [Lomustine],percent Bodipy-positive cells,[3],12.7 ± 0.56%
same,percent Bodipy-positive cells,library stock concentration: 8.6 mM,5.65 ± 0.95%
same,percent Bodipy-positive cells,[2],11.7 ± 2.5%
O=C(O)CCn1c2c(c3ccccc31)C[C@H](NS(=O)(=O)c1ccc(F)cc1)CC2,percent Bodipy-positive cells,[1],12.9 ± 4.7%
COc1cnc(NS(=O)(=O)c2ccc(N)cc2)nc1 [Sulfameter],percent Bodipy-positive cells,,11.5 ± 5.5%
same,percent Bodipy-positive cells,[3],9.7 ± 3.3%
same,percent Bodipy-positive cells,library stock concentration: 7.1 mM,18.3 ± 1.7%
same,percent Bodipy-positive cells,[2],8.22% and 27%
O=C(O)CCC(=O)Nc1ccc(S(=O)(=O)Nc2nccs2)cc1 [Succinylsulfathiazole],percent Bodipy-positive cells,,10.9 ± 2.6%
same,percent Bodipy-positive cells,[2],24.5 ± 4.5%
Cn1cnnc1Sc1c([N+](=O)[O-])ncn1C,percent Bodipy-positive cells,[2],4.43 ± 2.5%
Cc1cccc(CN2CCN(C(c3ccccc3)c3ccc(Cl)cc3)CC2)c1 (stereo unspecified) [Meclozine dihydrochloride],percent Bodipy-positive cells,,48.4 ± 3.3%
Cc1cccc(CN2CCN(C(c3ccccc3)c3ccc(Cl)cc3)CC2)c1 (stereo unspecified) [Meclizine hydrochloride],percent Bodipy-positive cells,[2],45.2% and 69%
"CCCCCCCCCCCC=CC(C)(C)C=CCCCC(=O)O [7,7-Dimethyleicosadienoic acid]",percent Bodipy-positive cells,[1],8.79 ± 3.8%
CCCCCCCN(CC)CCCC(O)c1ccc(NS(C)(=O)=O)cc1 (stereo unspecified) [Ibutilide Fumarate],percent Bodipy-positive cells,[3],19.79 ± 0.17%
same,percent Bodipy-positive cells,[2],49.2 ± 5.7%
Cc1nnc(C(C)C)n1C1C[C@H]2CC[C@@H](C1)N2CC[C@H](NC(=O)C1CCC(F)(F)CC1)c1ccccc1 (stereo in doubt) [Maraviroc],percent Bodipy-positive cells,[3],5.89 ± 0.14%
same,percent Bodipy-positive cells,[2],11.6 ± 2.5%

# Part of the list above, with tabs:
structure (smiles)	measurement	setting	value
c1ccc(N2CCN(Cc3nc4ccccc4[nH]3)CC2)nc1 [ABT 724 trihydrochloride]	percent Bodipy-positive cells	[2]	8.25 ± 2.3%
COC(=O)c1c(-c2cc(OC)c(OC)c(OC)c2)c2ccnc(OCc3ncccn3)c2c(=O)n1Cc1ccnc(C)c1 [T 0156 hydrochloride]	percent Bodipy-positive cells	[2]	7.23 ± 3.7%
CCCCC/C=C\C\C=C/C=C/C=C/[C@@H](SC[C@H](NC(=O)CC[C@H](N)C(=O)O)C(=O)NCC(=O)O)[C@@H](O)CCCC(=O)O [Leukotriene C4]	percent Bodipy-positive cells	library stock concentration: 100 uM	7.82 ± 10%
